Measured values from article PMC12660846.

Sequences of proteins named here, by UniProt entry; tags and fusion partners are left off. Residues count along the entry.
UniProt P27467, residues 19-352: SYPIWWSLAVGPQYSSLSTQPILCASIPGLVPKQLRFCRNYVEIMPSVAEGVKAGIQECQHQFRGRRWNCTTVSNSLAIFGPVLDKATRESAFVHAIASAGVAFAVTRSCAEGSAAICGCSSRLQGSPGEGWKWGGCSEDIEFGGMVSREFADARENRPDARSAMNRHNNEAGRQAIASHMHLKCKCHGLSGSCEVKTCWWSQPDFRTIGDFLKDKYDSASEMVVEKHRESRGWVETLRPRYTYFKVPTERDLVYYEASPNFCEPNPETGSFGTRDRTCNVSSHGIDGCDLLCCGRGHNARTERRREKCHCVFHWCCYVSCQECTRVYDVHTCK
UniProt P11171: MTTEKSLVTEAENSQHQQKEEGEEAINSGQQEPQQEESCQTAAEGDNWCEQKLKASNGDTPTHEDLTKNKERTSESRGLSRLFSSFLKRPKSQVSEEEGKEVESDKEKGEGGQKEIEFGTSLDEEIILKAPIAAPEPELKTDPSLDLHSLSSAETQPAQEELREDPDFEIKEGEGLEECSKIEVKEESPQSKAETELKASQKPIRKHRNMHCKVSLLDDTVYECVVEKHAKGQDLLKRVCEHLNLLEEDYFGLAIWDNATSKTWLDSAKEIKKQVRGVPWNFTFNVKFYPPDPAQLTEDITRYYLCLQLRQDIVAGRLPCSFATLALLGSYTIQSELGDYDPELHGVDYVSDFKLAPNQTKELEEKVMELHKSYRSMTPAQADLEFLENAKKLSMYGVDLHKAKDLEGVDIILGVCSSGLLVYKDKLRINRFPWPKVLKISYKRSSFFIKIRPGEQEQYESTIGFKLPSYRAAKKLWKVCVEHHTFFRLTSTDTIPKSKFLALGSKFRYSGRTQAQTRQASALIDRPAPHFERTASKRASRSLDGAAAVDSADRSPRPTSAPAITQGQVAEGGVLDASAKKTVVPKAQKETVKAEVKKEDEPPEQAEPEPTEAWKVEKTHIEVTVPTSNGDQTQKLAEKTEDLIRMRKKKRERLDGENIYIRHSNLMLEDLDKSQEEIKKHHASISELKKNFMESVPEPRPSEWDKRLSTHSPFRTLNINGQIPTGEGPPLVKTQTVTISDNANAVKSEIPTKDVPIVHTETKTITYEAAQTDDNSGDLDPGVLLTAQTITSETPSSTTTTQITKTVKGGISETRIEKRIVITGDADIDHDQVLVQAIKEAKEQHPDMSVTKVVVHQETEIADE
UniProt P49454: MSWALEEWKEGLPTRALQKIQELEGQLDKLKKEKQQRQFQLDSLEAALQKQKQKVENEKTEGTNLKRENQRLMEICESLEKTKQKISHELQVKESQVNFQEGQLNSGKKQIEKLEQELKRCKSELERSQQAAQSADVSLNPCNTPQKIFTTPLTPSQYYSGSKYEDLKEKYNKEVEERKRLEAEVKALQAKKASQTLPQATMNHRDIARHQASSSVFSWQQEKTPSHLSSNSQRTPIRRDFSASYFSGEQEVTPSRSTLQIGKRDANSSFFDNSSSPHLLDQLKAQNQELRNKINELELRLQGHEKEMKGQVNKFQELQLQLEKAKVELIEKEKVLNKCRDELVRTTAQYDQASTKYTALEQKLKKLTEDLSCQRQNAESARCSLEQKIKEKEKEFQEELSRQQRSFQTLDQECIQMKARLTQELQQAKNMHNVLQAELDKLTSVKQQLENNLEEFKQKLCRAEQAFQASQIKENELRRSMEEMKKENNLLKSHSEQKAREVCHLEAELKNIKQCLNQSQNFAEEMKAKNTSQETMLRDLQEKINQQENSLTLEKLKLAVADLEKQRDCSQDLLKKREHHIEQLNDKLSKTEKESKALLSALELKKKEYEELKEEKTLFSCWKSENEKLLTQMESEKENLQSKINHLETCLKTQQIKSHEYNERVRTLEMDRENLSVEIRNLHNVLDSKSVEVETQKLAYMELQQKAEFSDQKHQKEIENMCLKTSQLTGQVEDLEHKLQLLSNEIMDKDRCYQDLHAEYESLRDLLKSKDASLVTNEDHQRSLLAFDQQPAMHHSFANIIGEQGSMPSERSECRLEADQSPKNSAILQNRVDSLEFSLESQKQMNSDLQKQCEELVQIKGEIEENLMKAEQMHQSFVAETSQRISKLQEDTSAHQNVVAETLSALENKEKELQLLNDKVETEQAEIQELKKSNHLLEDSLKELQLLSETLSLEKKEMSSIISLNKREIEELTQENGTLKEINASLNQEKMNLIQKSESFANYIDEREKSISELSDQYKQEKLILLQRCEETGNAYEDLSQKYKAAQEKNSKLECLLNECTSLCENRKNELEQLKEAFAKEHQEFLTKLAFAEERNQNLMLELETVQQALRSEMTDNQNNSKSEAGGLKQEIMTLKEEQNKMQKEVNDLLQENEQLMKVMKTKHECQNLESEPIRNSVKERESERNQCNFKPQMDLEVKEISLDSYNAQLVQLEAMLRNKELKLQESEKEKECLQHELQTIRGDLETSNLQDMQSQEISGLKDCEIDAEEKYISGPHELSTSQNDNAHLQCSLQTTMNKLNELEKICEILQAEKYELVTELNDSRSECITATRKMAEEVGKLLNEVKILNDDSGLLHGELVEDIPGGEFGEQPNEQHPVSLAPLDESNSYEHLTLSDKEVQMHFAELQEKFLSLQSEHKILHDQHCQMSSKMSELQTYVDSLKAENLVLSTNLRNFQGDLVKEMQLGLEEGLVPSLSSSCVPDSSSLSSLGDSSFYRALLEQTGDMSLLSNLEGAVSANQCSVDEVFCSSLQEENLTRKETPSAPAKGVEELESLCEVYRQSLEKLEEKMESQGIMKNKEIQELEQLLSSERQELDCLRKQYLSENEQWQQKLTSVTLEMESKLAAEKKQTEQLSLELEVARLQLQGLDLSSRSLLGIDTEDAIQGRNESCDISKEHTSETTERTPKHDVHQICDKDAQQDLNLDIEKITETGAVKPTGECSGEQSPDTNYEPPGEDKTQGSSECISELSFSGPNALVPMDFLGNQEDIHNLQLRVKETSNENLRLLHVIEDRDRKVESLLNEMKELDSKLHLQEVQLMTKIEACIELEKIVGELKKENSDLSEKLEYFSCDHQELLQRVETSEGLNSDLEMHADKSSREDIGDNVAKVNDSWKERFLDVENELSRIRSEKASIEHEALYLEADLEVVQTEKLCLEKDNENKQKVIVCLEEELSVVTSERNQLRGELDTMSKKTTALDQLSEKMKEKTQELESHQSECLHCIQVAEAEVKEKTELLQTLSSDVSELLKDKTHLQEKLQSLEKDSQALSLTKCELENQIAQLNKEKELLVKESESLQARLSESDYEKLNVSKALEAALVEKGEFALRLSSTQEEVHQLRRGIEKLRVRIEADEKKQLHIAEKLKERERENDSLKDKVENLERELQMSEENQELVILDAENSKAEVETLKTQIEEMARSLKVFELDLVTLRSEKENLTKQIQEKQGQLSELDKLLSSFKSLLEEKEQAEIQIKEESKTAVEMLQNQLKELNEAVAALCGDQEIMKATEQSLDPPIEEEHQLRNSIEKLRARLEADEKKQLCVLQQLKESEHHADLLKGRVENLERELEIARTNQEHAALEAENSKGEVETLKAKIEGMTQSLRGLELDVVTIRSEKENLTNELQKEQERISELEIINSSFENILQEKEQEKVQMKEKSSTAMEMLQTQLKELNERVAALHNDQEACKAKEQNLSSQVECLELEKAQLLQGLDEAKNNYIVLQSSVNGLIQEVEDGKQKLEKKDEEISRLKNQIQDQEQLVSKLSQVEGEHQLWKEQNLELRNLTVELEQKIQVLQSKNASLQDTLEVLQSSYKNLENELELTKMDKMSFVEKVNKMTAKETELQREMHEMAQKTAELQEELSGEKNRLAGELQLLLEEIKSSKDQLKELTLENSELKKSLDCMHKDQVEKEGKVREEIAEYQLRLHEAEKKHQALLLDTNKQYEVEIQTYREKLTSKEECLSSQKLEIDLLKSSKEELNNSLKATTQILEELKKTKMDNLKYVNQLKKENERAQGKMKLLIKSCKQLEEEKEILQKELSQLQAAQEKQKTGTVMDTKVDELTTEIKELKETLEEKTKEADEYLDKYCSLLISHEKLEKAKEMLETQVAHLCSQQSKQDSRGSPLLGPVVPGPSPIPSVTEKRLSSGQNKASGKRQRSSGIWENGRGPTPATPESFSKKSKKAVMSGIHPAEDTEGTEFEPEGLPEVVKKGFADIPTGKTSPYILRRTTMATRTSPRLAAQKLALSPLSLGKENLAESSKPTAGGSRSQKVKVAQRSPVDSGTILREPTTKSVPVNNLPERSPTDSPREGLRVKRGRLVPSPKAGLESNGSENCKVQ
UniProt P68400: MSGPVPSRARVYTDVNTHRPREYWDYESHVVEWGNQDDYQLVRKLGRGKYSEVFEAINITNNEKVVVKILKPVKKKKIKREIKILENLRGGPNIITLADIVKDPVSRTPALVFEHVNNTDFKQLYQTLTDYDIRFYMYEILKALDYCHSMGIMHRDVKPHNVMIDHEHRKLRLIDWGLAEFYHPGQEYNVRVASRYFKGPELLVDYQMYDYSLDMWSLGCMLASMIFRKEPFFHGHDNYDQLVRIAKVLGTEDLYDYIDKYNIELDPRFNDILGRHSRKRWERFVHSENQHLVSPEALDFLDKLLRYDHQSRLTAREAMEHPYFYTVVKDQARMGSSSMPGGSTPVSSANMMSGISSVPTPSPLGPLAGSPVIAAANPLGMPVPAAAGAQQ
UniProt P08754: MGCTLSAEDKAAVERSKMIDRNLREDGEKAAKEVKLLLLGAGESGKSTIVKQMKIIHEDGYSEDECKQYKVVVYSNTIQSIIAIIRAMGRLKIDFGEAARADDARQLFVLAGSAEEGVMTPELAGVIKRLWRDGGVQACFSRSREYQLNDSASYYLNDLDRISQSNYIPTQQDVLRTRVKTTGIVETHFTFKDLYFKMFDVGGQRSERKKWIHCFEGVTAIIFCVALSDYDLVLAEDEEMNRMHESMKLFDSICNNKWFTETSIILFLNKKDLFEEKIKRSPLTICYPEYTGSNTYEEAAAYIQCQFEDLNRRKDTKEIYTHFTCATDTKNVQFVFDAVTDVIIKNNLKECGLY
UniProt O00139: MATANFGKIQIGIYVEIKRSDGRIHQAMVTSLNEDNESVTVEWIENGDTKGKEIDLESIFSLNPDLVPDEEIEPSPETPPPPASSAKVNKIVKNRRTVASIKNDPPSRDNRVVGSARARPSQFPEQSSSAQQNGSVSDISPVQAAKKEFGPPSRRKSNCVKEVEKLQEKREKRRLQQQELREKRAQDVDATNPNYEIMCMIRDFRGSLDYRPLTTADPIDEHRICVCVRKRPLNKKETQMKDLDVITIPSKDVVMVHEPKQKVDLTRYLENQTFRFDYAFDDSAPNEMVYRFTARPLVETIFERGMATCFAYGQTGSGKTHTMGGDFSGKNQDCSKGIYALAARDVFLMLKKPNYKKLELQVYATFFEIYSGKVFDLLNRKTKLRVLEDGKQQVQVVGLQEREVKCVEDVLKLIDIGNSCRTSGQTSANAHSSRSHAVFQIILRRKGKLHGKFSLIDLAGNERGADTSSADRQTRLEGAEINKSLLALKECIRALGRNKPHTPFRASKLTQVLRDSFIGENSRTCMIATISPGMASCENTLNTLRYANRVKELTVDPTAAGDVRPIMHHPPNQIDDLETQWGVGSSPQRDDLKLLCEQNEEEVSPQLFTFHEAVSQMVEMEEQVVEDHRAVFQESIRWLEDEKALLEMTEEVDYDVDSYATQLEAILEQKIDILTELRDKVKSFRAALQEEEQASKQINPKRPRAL
UniProt Q03135: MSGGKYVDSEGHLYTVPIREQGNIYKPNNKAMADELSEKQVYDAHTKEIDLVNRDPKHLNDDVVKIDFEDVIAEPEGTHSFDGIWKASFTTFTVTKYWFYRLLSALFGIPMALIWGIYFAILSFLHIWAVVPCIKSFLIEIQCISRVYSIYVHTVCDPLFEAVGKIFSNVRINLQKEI
UniProt P31431, residues 19-198: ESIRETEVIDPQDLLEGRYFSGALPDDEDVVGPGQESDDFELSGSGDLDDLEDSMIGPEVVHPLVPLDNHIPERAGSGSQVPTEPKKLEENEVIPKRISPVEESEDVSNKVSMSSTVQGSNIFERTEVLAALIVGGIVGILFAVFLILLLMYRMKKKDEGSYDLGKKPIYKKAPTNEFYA

B1: R-spondin-3 (protein, UniProt Q9BXY4 22-272)
chain: QNASRGRRQRRMHPNVSQGCQGGCATCSDYNGCLSCKPRLFFALERIGMKQIGVCLSSCPSGYYGTRYPDINKCTKCKADCDTCFNKNFCTKCKSGFYLHLGKCLDNCPEGLEANNHTMECVSIVHCEVSEWNPWSPCTKKGKTCGFKRGTETRVREIIQHPSAKGNLCPPTNETRKCTVQRKKCQKGERGKKGRERKRKKPNKGESKEAIPDSKSLESSKEIPEQRENKQQQKKRKVQDKQKSVSVSTVH
B2: syndecan-1 (protein, UniProt P18827 23-310)
chain: QIVATNLPPEDQDGSGDDSDNFSGSGAGALQDITLSQQTPSTWKDTQLLTAIPTSPEPTGLEATAASTSTLPAGEGPKEGEAVVLPEVEPGLTAREQEATPRPRETTQLPTTHLASTTTATTAQEPATSHPHRDMQPGHHETSTPAGPSQADLHTPHTEDGGPSATERAAEDGASSQLPAAEGSGEQDFTFETSGENTAVVAVEPDRRNQSPVDQGATGASQGLLDRKEVLGGVIAGGLVGLIFAVCLVGFMLYRMKKKDEGSYSLEEPKQANGGAYQKPTKQEEFYA

Biological target: murine Wnt3a (mouse) (UniProt P27467)
Assay: affinity purification with mass spectrometry; murine Wnt3a covalently immobilised on magnetic Dynabeads, added to live HeLa cells with MG132 (metaphase arrest, 1 h); shake-off, lysis in 0.2% NP-40 without clearing, magnetic isolation, 3 washes; LC-MS/MS against BSA-coated beads, triplicate; only the target purified

binding | Molecule
binds | 4.1R (from UniProt P11171 1-864)
binds | CENP-F (from UniProt P49454 1-3114)
binds | CK2α (from UniProt P68400 1-391) (enzyme)
binds | Gαi3 (from UniProt P08754 1-354)
binds | MACF1 (from UniProt Q9UPN3 1-7388)
binds | MT depolymerase Kif2A (from UniProt O00139 1-706)
binds | PP2A phosphatase regulator PPP2R1A (from UniProt P30153 1-589)
binds | caveolin-1 (from UniProt Q03135 1-178)
binds | myosin1B (from UniProt O43795 1-1136)
binds | nuclear mitotic apparatus protein (NuMA) (from UniProt Q14980 1-2115)
binds | syndecan-4 (from UniProt P31431 19-198)
binds | B1
binds | B2

No constants are given. Whether binding was seen depends on the method and setting. In cells and extracts the contact can be indirect. A yes stands for co-enrichment or nearness to the bait. Other partners may have been found.
